This is an account of results in article PMC11381358, “Phosphorylation of the nuclear poly(A) binding protein (PABPN1) during mitosis protects mRNA from hyperadenylation and maintains transcriptome dynamics”.

Amino acid sequences for entries named in this document (tags omitted). A change or cut given only in a name is not applied to a line headed by its entry.
UniProt Q86U42: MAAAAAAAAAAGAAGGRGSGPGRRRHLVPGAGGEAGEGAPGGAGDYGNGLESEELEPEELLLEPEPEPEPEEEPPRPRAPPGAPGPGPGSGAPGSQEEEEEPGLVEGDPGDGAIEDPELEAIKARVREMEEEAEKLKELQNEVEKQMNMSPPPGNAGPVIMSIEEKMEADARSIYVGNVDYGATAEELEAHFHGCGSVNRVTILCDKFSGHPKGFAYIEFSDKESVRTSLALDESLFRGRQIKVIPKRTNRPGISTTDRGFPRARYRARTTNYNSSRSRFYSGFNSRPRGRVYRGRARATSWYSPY

Series [1] concerns the target His-MBP-PABPN1 4SA (human) (UniProt Q86U42). Nature of the series: filter binding. To be noted: 50 mM Tris-HCl pH 8.0, 100 mM KCl, 5 mM MgCl2, 2 mM EDTA, 10% glycerol, 0.2 mg/ml BSA, 0.01% NP-40, 0.5 mM DTT, 2 U/ul RNase OUT; 500 pM RNA, protein 62.5 nM-4 uM; recombinant protein; protein details: N-terminal His-MBP (uncleaved); label: 5'-32P.
Series [2] deals with His-MBP-PABPN1 4SD (human) (UniProt Q86U42). The series is described as follows: filter binding. As to conditions: 50 mM Tris-HCl pH 8.0, 100 mM KCl, 5 mM MgCl2, 2 mM EDTA, 10% glycerol, 0.2 mg/ml BSA, 0.01% NP-40, 0.5 mM DTT, 2 U/ul RNase OUT; 500 pM RNA, protein 62.5 nM-4 uM; recombinant protein; protein details: N-terminal His-MBP (uncleaved); label: 5'-32P.

The exact form of at least one protein or probe is not confirmed.

On to “AAAAAAAAAAAAAAAAAAAAAAAAAAAAAA [poly(A)30]”, for which the binding result in series [1] and in series [2] was “binds” throughout.
